# According to article PMC8061361:
# Amino acid sequences for entries named in this document (tags omitted). Residues count along the entry.
# UniProt O95831, residues 102-613: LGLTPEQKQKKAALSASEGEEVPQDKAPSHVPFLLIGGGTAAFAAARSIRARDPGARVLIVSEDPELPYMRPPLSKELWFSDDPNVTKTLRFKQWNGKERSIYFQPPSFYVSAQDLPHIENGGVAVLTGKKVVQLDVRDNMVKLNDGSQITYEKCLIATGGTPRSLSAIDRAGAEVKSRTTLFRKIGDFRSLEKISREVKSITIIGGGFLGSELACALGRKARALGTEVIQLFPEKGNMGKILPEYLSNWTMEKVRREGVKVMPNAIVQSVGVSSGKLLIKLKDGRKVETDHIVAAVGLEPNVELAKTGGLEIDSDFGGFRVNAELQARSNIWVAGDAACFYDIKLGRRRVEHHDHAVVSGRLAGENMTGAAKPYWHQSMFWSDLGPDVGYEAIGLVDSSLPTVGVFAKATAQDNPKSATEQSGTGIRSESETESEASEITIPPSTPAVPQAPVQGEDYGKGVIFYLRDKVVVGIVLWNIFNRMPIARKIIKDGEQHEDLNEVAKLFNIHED
# UniProt Q07820: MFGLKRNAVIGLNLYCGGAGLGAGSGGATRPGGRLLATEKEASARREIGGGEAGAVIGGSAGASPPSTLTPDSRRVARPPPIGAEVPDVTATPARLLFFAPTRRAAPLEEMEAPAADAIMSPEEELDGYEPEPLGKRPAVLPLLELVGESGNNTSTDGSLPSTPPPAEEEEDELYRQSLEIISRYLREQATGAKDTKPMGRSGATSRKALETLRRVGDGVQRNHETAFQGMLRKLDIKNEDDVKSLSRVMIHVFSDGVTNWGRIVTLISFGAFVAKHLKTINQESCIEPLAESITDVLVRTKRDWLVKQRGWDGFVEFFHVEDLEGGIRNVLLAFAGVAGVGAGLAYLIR
# T1: Flag-tagged OTU deubiquitinase 1 (OTUD1) (UniProt Q5VV17)
# T1 sequence: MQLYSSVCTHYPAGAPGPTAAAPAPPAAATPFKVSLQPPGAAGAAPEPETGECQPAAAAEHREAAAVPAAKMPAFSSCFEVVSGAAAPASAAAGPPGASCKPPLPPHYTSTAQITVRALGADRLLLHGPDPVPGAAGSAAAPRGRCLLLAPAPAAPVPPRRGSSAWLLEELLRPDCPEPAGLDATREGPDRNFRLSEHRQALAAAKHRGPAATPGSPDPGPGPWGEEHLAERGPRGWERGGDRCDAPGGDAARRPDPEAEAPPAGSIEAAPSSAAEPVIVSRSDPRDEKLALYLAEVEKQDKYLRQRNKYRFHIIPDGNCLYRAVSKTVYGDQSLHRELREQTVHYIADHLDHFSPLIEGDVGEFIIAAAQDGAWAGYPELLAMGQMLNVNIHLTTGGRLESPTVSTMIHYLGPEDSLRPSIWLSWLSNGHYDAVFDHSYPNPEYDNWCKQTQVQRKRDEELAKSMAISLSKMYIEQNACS
# Columns and labels:
# [1] = molecular target: T1, Flag-tagged OTU deubiquitinase 1 (OTUD1); test: affinity purification with mass spectrometry; Flag-OTUD1 transfected into 293T cells; lysate immunoprecipitated with anti-Flag magnetic beads, washed three times, eluted, gel-based LC-MS/MS
# [2] = molecular target: T1, Flag-tagged OTU deubiquitinase 1 (OTUD1); test: as above; remark: listed apart in the source
Molecule,binding [1],binding [2]
"endogenous apoptosis-inducing factor (AIF), wild type (from UniProt O95831 102-613)",binds,–
myeloid cell leukemia sequence 1 (MCL1) (from UniProt Q07820 1-350),no binding,–
"DDB1 and CUL4 associated factor 10 (DCAF10), endogenous in 293T (protein, UniProt Q5QP82 1-559) MFPFGPHSPGGDGSAGAGAEEPTPHEGQAAATGPPSPLHPGADATHPPPPARSPRRPGAPSLSPAPRSGELGLPGAPESSTASAPGEPSPPSPPCRRPGPDCRAKSRGRHGLGAGLGGPGARLFGWLKERSLGRGLFVDPARDNFRTMTSLYGSIHPADSVYLSTRTHGAVFNLEYSPDGSVLTVACEQTEVLLFDPISSKHIKTLSEAHEDCVNNIRFLDNRLFATCSDDTTIALWDLRKLNTKVCTLHGHTSWVKNIEYDTNTRLLVTSGFDGNVIIWDTNRYTEDGCPHKKFFHTRFLMRMRLTPDCSKMLISTSSGYLLILHDLDLTKSLEVGSYPILRARRTTSSSDLTTSSSSSGPRVSGSPCHHSDSNSSEKHMSRASQREGVSPRNSLEVVTPEVLGESDHGNCITSLQLHPKGWATLLRCSSNSDDEECTCVYEFQEGAPVRPVSPRCSLRLTHYIEEANVGRGYIKELCFSPDGRMISSPHGYGIRLLGFDKQCSELVDCLPKEASPLRVIRSLYSHNDVVLTTKFSPTHCQIASGCLSGRVSLYQPKF",–,binds

# Read-outs that look alike come from different tables or passages of the source. These are yes or no findings as the source states them, for the method shown. Binding seen in cells or lysates may run through a third protein. A yes stands for co-enrichment or nearness to the bait. Other partners may have been found. For part of these data: No binding means not detected with the bait. Sequences can lack the tags named with a protein.
